Reference: paper PMC11484822
These are yes or no findings as the source states them, for the method shown. Binding seen in cells or lysates may run through a third protein. Some results given as binding are weak or reduced against the parent protein; the word gives no strength.

By UniProt entry, the sequences of proteins in these tests, tags left out. Where a name states a change or a piece, a line headed by the entry shows the natural chain unless it says otherwise.
UniProt Q14974: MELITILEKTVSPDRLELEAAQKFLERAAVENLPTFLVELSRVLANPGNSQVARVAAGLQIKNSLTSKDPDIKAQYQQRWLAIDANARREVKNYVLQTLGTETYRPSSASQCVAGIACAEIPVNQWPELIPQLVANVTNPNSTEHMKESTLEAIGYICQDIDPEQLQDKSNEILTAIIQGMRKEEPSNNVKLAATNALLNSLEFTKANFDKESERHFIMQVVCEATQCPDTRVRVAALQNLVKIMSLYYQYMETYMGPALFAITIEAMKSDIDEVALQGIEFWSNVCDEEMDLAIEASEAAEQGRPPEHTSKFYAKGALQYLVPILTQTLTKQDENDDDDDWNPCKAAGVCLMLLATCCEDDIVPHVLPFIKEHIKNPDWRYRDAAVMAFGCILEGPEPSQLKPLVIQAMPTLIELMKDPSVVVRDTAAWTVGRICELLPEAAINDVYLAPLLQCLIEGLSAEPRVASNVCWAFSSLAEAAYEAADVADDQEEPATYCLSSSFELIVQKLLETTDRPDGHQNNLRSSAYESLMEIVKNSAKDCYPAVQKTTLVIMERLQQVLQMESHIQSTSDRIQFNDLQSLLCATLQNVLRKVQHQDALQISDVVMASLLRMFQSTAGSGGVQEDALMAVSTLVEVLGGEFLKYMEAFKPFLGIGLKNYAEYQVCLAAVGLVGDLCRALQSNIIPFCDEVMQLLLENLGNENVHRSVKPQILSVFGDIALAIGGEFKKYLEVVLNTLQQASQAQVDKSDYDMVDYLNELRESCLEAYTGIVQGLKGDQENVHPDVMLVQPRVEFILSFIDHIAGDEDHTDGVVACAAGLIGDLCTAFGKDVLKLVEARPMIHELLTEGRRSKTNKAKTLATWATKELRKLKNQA
UniProt Q96SK2: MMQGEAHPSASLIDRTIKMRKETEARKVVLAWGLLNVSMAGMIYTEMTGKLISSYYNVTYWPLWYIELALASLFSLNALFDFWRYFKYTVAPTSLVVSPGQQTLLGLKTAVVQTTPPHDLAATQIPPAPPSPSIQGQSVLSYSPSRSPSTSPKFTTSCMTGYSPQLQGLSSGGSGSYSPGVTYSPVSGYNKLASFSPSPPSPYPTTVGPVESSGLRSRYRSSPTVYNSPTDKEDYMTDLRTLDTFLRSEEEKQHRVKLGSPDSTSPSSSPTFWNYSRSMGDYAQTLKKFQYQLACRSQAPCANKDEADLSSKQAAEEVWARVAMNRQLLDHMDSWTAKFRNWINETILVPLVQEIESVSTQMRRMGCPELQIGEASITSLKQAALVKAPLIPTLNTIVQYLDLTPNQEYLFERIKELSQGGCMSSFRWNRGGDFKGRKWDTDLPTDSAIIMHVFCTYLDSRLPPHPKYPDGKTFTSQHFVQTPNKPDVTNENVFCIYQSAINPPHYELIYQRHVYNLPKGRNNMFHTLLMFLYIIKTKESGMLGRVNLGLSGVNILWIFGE

What was measured:
[1] = molecular target: HA-KPNB1 expressed in HEK-293T cells (UniProt Q14974); test: co-IP; HEK-293T cells transfected with Flag-TMEM209 or HA-KPNB1, alone or simultaneously; IP lysis buffer, antibody-bound magnetic beads, 4 °C, 12 h; western blot
[2] = molecular target: Flag-TMEM209 expressed in HEK-293T cells (UniProt Q96SK2); test: as above
[3] = molecular target: TMEM209 of the IP mapping assays in HEK-293T cells (UniProt Q96SK2); test: co-IP; IP mapping with fragments of KPNB1 in HEK-293T cells; western blot
[4] = molecular target: KPNB1 of the GST pull-down (UniProt Q14974); test: pull-down; GST pull-down, 'in HEK-293T cells'; which partner carried GST is not stated
[5] = molecular target: Karyopherin-β1 (KPNB1), endogenous in MHCC-97H and Huh7 cells (human (endogenous in MHCC-97H and Huh7)) (UniProt Q14974); test: co-IP; endogenous proteins in wild-type MHCC-97H and Huh7 cells; western blot
[6] = molecular target: Karyopherin-β1 (KPNB1), endogenous in MHCC-97H and Huh7 cells (human (endogenous in MHCC-97H and Huh7)) (UniProt Q14974); test: co-IP; KPNB1 and RCHY1 in MHCC-97H/Huh7 cells overexpressing TMEM209 or transfected with increasing doses of TMEM209; western blot
[7] = molecular target: Karyopherin-β1 (KPNB1), endogenous in MHCC-97H and Huh7 cells (human (endogenous in MHCC-97H and Huh7)) (UniProt Q14974); test: co-IP; KPNB1 and RCHY1 in MHCC-97H/Huh7 cells; western blot

For “Flag-TMEM209 expressed in HEK-293T cells (from UniProt Q96SK2 1-561)”, the binding [1] was “binds”.

With “HA-KPNB1 expressed in HEK-293T cells (from UniProt Q14974 1-876)” the binding [2] was “binds”.

In the case of “KPNB1 residues 1-211 (from UniProt Q14974 1-211) (domain or fragment)”, the binding [3] is reported as “binds”.

In the case of “TMEM209 of the GST pull-down (from UniProt Q96SK2 1-561)”, the binding [4] is reported as “binds”.

In the case of “Transmembrane protein 209 (TMEM209), endogenous in MHCC-97H and Huh7 cells (from UniProt Q96SK2 1-561)”, the binding [5] is reported as “binds”.

B1: RING finger and CHY zinc finger domain-containing protein 1 (RCHY1) (enzyme, UniProt Q96PM5 1-261)
chain: MAATAREDGASGQERGQRGCEHYDRGCLLKAPCCDKLYTCRLCHDNNEDHQLDRFKVKEVQCINCEKIQHAQQTCEECSTLFGEYYCDICHLFDKDKKQYHCENCGICRIGPKEDFFHCLKCNLCLAMNLQGRHKCIENVSRQNCPICLEDIHTSRVVAHVLPCGHLLHRTCYEEMLKEGYRCPLCMHSALDMTRYWRQLDDEVAQTPMPSEYQNMTVDILCNDCNGRSTVQFHILGMKCKICESYNTAQAGGRRISLDQQ
B1 was tested, and the binding [6] was “binds” and the binding [7] was “binds”.
